One experiment concerns the target T1, HA-TRAF4 (UniProt Q9BUZ4).
T1 sequence: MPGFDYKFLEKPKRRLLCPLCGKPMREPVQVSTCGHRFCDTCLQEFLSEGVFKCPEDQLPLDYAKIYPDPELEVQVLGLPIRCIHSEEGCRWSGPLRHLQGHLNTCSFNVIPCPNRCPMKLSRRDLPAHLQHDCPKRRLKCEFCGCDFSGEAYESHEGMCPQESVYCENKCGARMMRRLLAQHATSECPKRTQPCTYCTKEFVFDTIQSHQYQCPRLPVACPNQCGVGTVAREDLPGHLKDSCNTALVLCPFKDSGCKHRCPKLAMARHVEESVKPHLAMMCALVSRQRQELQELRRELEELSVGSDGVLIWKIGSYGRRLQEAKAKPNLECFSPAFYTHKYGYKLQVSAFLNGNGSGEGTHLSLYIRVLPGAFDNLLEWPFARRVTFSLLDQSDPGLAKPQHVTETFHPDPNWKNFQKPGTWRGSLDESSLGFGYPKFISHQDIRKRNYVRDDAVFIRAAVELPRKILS
Kind of experiment: co-IP; HEK293T cells cotransfected with tagged TRAF4 and HDAC6 constructs, Western blot.

The chains behind the UniProt entries cited, without tags or fusion partners.
UniProt Q9UBN7: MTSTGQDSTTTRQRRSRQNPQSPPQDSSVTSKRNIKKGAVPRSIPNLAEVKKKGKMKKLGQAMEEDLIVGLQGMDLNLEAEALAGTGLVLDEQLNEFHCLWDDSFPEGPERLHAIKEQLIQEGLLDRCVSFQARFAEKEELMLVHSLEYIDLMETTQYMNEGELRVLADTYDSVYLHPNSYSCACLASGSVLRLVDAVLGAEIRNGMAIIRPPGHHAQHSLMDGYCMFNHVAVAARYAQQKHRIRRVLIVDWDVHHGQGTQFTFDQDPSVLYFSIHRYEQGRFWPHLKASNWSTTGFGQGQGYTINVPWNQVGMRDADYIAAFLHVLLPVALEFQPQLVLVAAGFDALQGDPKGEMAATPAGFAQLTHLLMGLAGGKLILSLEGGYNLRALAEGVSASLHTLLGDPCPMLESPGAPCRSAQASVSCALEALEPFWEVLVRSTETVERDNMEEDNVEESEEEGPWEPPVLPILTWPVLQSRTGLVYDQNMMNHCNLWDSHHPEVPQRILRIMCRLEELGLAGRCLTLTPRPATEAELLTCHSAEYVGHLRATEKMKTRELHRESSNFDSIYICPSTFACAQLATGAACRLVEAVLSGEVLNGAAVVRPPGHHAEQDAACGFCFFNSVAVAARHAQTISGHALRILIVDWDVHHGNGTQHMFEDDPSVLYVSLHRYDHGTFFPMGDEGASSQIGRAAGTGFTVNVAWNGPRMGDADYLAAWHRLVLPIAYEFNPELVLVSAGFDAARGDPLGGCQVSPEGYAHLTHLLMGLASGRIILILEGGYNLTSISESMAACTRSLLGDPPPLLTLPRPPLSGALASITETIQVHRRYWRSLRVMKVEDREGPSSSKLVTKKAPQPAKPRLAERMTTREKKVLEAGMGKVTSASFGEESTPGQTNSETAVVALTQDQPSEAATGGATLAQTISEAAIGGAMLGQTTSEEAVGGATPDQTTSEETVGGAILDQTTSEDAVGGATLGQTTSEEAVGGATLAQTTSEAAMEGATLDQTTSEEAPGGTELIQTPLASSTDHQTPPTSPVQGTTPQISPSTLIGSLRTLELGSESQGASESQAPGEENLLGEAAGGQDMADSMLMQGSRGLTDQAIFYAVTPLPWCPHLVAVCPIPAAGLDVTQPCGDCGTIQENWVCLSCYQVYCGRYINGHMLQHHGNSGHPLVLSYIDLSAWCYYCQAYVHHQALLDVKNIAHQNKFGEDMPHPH

Experiment [1] concerns the target T2, Tumor necrosis factor receptor-associated factor 4 (TRAF4), endogenous (mouse (endogenous in TS^KI cells and E13.5 embryos)) (UniProt Q61382).
T2 sequence: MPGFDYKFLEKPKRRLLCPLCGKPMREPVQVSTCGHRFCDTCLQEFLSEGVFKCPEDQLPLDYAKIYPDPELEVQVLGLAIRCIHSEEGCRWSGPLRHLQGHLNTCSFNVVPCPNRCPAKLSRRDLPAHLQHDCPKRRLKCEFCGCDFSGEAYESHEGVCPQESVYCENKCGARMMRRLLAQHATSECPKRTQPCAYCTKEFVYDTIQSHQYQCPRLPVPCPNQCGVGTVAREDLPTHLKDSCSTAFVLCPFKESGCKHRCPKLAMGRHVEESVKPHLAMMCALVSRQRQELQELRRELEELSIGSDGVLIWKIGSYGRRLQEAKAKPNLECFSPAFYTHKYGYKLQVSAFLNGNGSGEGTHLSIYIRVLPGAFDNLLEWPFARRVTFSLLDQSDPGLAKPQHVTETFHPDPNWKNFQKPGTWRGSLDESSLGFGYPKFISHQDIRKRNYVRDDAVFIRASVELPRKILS
Kind of experiment: co-IP; endogenous proteins in TS^KI cell lysates and E13.5 embryo lysates, Western blot. Background: In western blotting, separated proteins are transferred to a membrane and probed.

Results are given in words; binding and its absence hold for the method and conditions named. In cells and extracts the contact can be indirect. Some results given as binding are weak or reduced against the parent protein; the word gives no strength. Sequences can lack the tags named with a protein.

Take “Flag-HDAC6 (from UniProt Q9UBN7 1-1215) (enzyme)”: the binding result with HA-TRAF4 is recorded as “binds”.

B1: Histone deacetylase 6 (HDAC6), endogenous (enzyme, UniProt Q9Z2V5 1-1149)
chain: MTSTGQDSSTRQRKSRHNPQSPLQESSATLKRGGKKCAVPHSSPNLAEVKKKGKMKKLSQPAEEDLVVGLQGLDLNPETRVPVGTGLVFDEQLNDFHCLWDDSFPESPERLHAIREQLILEGLLGRCVSFQARFAEKEELMLVHSLEYIDLMETTQYMNEGELRVLAETYDSVYLHPNSYSCACLATGSVLRLVDALMGAEIRNGMAVIRPPGHHAQHNLMDGYCMFNHLAVAARYAQKKHRIQRVLIVDWDVHHGQGTQFIFDQDPSVLYFSIHRYEHGRFWPHLKASNWSTIGFGQGQGYTINVPWNQTGMRDADYIAAFLHILLPVASEFQPQLVLVAAGFDALHGDPKGEMAATPAGFAHLTHLLMGLAGGKLILSLEGGYNLRALAKGVSASLHTLLGDPCPMLESCVVPCASAQTSIYCTLEALEPFWEVLERSVETQEEDEVEEAVLEEEEEEGGWEATALPMDTWPLLQNRTGLVYDEKMMSHCNLWDNHHPETPQRILRIMCHLEEVGLAARCLILPARPALDSELLTCHSAEYVEHLRTTEKMKTRDLHREGANFDSIYICPSTFACAKLATGAACRLVEAVLSGEVLNGIAVVRPPGHHAEPNAACGFCFFNSVAVAARHAQIIAGRALRILIVDWDVHHGNGTQHIFEDDPSVLYVSLHRYDRGTFFPMGDEGASSQVGRDAGIGFTVNVPWNGPRMGDADYLAAWHRLVLPIAYEFNPELVLISAGFDAAQGDPLGGCQVTPEGYAHLTHLLMGLAGGRIILILEGGYNLASISESMAACTHSLLGDPPPQLTLLRPPQSGALVSISEVIQVHRKYWRSLRLMKMEDKEECSSSRLVIKKLPPTASPVSAKEMTTPKGKVPEESVRKTIAALPGKESTLGQAKSKMAKAVLAQGQSSEQAAKGTTLDLATSKETVGGATTDLWASAAAPENFPNQTTSVEALGETEPTPPASHTNKQTTGASPLQGVTAQQSLQLGVLSTLELSREAEEAHDSEEGLLGEAAGGQDMNSLMLTQGFGDFNTQDVFYAVTPLSWCPHLMAVCPIPAAGLDVSQPCKTCGTVQENWVCLTCYQVYCSRYVNAHMVCHHEASEHPLVLSCVDLSTWCYVCQAYVHHEDLQDVKNAAHQNKFGEDMPHSH
In the case of B1, the binding result in experiment [1] is recorded as “binds”.
